Data as given in EP0515796A1, “5-Aminoacyl-5,10-dihydro-11H-dibenzo(b,e)(1,4)diazepin-11-ones, processes for their preparation, and their use as medicaments” (ARZNEIMITTELWERK DRESDEN GmbH, priority 1991, dated 1992).

Assay: in vivo
Details: rat, therapeutic breadth, rat LD50 / rat CaCl2-arrhythmia ED50, read-out: Q LD50/ED50
From the text: Die Verbindungen der allgemeinen Formel I zeigen bei intravenöser Anwendung an Ratten eine bessere Verträglichkeit als ihre Referenzpräparate.

Structure (SMILES): CCN(CC)CC(=O)Nc1c(C)cccc1C [Lidokain]
- selectivity ratio: 5.8
